# Measurements from patent US20170189504A1, “NOVEL PEPTIDES AND COMBINATION OF PEPTIDES FOR USE IN IMMUNOTHERAPY AGAINST VARIOUS CANCERS” (immatics biotechnologies GmbH, priority 2015, published 2017).
# For part of these data: For expression read-outs the peptide stands for its source gene, whose mRNA was measured; the gene is not named for every peptide.
# Key:
# HLA-A*02 = experiment: Identification and relative LC-MS quantitation of HLA-A*02-presented tumor-associated peptides on tissue samples (presentation profiles, Tables 13A, 13B, 15, FIG. 1); parameters: species or system human; key to Presentation score NHL / Presentation score CLL / Presentation score BRCA / Presentation score AML / Presentation score GB / Presentation score NSCLC / Presentation score GBC_CCC / Presentation score UEC / Presentation score MEL / Presentation score OSCAR / Presentation score GC / Presentation score UBC / Presentation score OC / Presentation score RCC / Presentation score CRC / Presentation score PCA / Presentation score HCC / Presentation score PC / Presentation score SCLC: specifically presented on tumors (++++); very highly over-presented on tumors compared to a panel of normal tissues (+++); highly over-presented on tumors compared to a panel of normal tissues (++); over-presented on tumors compared to a panel of normal tissues (+); details: for Presentation score OSCAR: esophageal cancer, including cancer of the gastric-esophageal junction (N = 17) vs panel of normal tissues (N = 262); for Presentation score GC: gastric cancer (N = 29) vs panel of normal tissues (N = 262); for Peptide Presentation on cancer entities: HLA-A*02-binding tumor-associated peptides
# source genes (mRNA) [1] = experiment: Gene and exon expression of source genes, TCGA tumor samples compared with normal tissue samples (Lonsdale, 2013) (Table 17); parameters: species or system human; details: for Target coverage: over-expression category of source gene, LAML: Acute Myeloid Leukemia (N = 173); for Target coverage: over-expression category of source gene, BLCA: Bladder urothelial carcinoma (N = 408); for Target coverage: over-expression category of source gene, BRCA: Breast cancer (N = 1104), cutoff more than 2-fold above highest 75% percentile of high and medium risk normal tissue samples; for Target coverage: over-expression category of source gene, READ: Colon and rectal adenocarcinoma (N = 167); for Target coverage: over-expression category of source gene, COAD: Colon and rectal adenocarcinoma (N = 462); for Target coverage: over-expression category of source gene, ESCA: Esophageal cancer (N = 185); for Target coverage: over-expression category of source gene, KICH: Kidney chromophobe (N = 66); for Target coverage: over-expression category of source gene, LUAD: Lung adenocarcinoma (N = 517); for Target coverage: over-expression category of source gene, LUSC: Lung squamous cell carcinoma (N = 503); for Target coverage: over-expression category of source gene, DLBC: Lymphoid neoplasm diffuse large B-cell lymphoma (N = 48); for Target coverage: over-expression category of source gene, OV: Ovarian serous cystadenocarcinoma (N = 309); for Target coverage: over-expression category of source gene, PRAD: Prostate adenocarcinoma (N = 498); for Target coverage: over-expression category of source gene, SKCM: Skin cutaneous melanoma (N = 473); for Target coverage: over-expression category of source gene, STAD: Stomach adenocarcinoma (N = 415); for Target coverage: over-expression category of source gene, UCEC: Uterine corpus endometrial carcinoma (N = 546); for Target coverage: over-expression category of source gene, GBM: Glioblastoma multiforme (N = 169); for Target coverage: over-expression category of source gene, LGG: Lower grade glioma (N = 534)
# source genes (mRNA) [2] = experiment: Expression profiling of source genes by in-house RNASeq of tumor and normal tissues (Table 18, FIG. 2); parameters: species or system human; key: very highly over-expressed in tumors compared to a panel of normal tissues (+++); highly over-expressed in tumors compared to a panel of normal tissues (++); over-expressed in tumors compared to a panel of normal tissues (+); details: source gene of peptide; for Expression score BRCA: BRCA tumors vs panel of normal tissues; for Expression score AML: acute myeloid leukemia (N = 11) vs panel of normal tissues; for Expression score OSCAR: esophageal cancer incl. gastric-esophageal junction (N = 11) vs panel of normal tissues; for Expression score GB: glioblastoma (N = 24) vs panel of normal tissues; for Expression score NHL: non-Hodgkin lymphoma (N = 10) vs panel of normal tissues; for Expression score NSCLC: non-small cell lung cancer (N = 11) vs panel of normal tissues; for Expression score OC: ovarian cancer (N = 12) vs panel of normal tissues; for Expression score SCLC: small cell lung cancer (N = 10) vs panel of normal tissues
# [3] = Table 13A, cancer entities on which the peptide was found presented
# [4] = cutoff more than 2-fold above highest 75% percentile of normal tissue samples
Substance,Peptide Presentation on cancer entities (HLA-A*02; [3]),"Target coverage: over-expression category of source gene, LAML (source genes (mRNA) [1]; [4])","Target coverage: over-expression category of source gene, BLCA (source genes (mRNA) [1]; [4])","Target coverage: over-expression category of source gene, BRCA (source genes (mRNA) [1])","Target coverage: over-expression category of source gene, READ (source genes (mRNA) [1]; [4])","Target coverage: over-expression category of source gene, COAD (source genes (mRNA) [1]; [4])","Target coverage: over-expression category of source gene, ESCA (source genes (mRNA) [1]; [4])","Target coverage: over-expression category of source gene, KICH (source genes (mRNA) [1]; [4])","Target coverage: over-expression category of source gene, LUAD (source genes (mRNA) [1]; [4])","Target coverage: over-expression category of source gene, LUSC (source genes (mRNA) [1]; [4])","Target coverage: over-expression category of source gene, DLBC (source genes (mRNA) [1]; [4])","Target coverage: over-expression category of source gene, OV (source genes (mRNA) [1]; [4])","Target coverage: over-expression category of source gene, SKCM (source genes (mRNA) [1]; [4])","Target coverage: over-expression category of source gene, STAD (source genes (mRNA) [1]; [4])","Target coverage: over-expression category of source gene, UCEC (source genes (mRNA) [1]; [4])",Expression score OSCAR (source genes (mRNA) [2]),Expression score GB (source genes (mRNA) [2]),Expression score NHL (source genes (mRNA) [2]),Expression score NSCLC (source genes (mRNA) [2]),Expression score OC (source genes (mRNA) [2]),also measured
111: peptide found in NUP210 (gene looked up) (AIVDLIHDI; listed as Homo sapiens) [compound 111],"GC, NSCLC, OSCAR",A (>=50% of tumors above the cutoff),"C (>=5% of tumors above the cutoff, but <20%)","B (>= 20% of tumors above the cutoff, but <50%)","B (>= 20% of tumors above the cutoff, but <50%)","B (>= 20% of tumors above the cutoff, but <50%)","B (>= 20% of tumors above the cutoff, but <50%)","C (>=5% of tumors above the cutoff, but <20%)","B (>= 20% of tumors above the cutoff, but <50%)","B (>= 20% of tumors above the cutoff, but <50%)","B (>= 20% of tumors above the cutoff, but <50%)",A (>=50% of tumors above the cutoff),"B (>= 20% of tumors above the cutoff, but <50%)","B (>= 20% of tumors above the cutoff, but <50%)","B (>= 20% of tumors above the cutoff, but <50%)",+,+,+++,++,++,"Presentation score OSCAR (HLA-A*02; HLA-A*02 peptides): ++++; Presentation score GC (HLA-A*02; HLA-A*02 peptides): ++++; Presentation score NSCLC (HLA-A*02; HLA-A*02 peptides, non-small cell lung cancer (N = 90) vs panel of normal tissues (N = 262)): ++++; Target coverage: over-expression category of source gene, PRAD (source genes (mRNA) [1]; [4]): C (>=5% of tumors above the cutoff, but <20%); Expression score BRCA (source genes (mRNA) [2]): +; Expression score AML (source genes (mRNA) [2]): +++; Expression score CLL (source genes (mRNA) [2]; chronic lymphocytic leukemia (N = 10) vs panel of normal tissues): ++; Expression score SCLC (source genes (mRNA) [2]): ++"
116: peptide found in RACGAP1 (gene looked up) (TIDESGSIL; listed as Homo sapiens) [compound 116],"UBC, NHL",A (>=50% of tumors above the cutoff),A (>=50% of tumors above the cutoff),A (>=50% of tumors above the cutoff),A (>=50% of tumors above the cutoff),A (>=50% of tumors above the cutoff),A (>=50% of tumors above the cutoff),"C (>=5% of tumors above the cutoff, but <20%)","B (>= 20% of tumors above the cutoff, but <50%)",A (>=50% of tumors above the cutoff),A (>=50% of tumors above the cutoff),A (>=50% of tumors above the cutoff),A (>=50% of tumors above the cutoff),A (>=50% of tumors above the cutoff),"B (>= 20% of tumors above the cutoff, but <50%)",+,+,+,++,+,"Presentation score NHL (HLA-A*02; HLA-A*02 peptides, non-Hodgkin lymphoma (N = 18) vs panel of normal tissues (N = 262)): ++++; Presentation score UBC (HLA-A*02; HLA-A*02 peptides, urinary bladder cancer (N = 16) vs panel of normal tissues (N = 262)): ++++; Peptide Presentation on cancer entities (HLA-A*02; Table 13B, presentation on additional cancer entities): MEL, AML; Target coverage: over-expression category of source gene, CHOL (source genes (mRNA) [1]; Cholangiocarcinoma (N = 36), cutoff more than 2-fold above highest 75% percentile of normal tissue samples): C (>=5% of tumors above the cutoff, but <20%); Target coverage: over-expression category of source gene, GBM (source genes (mRNA) [1]; [4]): A (>=50% of tumors above the cutoff); Target coverage: over-expression category of source gene, LIHC (source genes (mRNA) [1]; Liver hepatocellular carcinoma (N = 374), cutoff more than 2-fold above highest 75% percentile of normal tissue samples): C (>=5% of tumors above the cutoff, but <20%); Target coverage: over-expression category of source gene, LGG (source genes (mRNA) [1]; [4]): C (>=5% of tumors above the cutoff, but <20%); Expression score BRCA (source genes (mRNA) [2]): +; Expression score CRC (source genes (mRNA) [2]; colorectal cancer (N = 20) vs panel of normal tissues): +; Expression score SCLC (source genes (mRNA) [2]): ++; Expression score UBC (source genes (mRNA) [2]; urinary bladder cancer (N = 10) vs panel of normal tissues): +"
120: peptide found in HCFC1 (gene looked up) (VTPVTVSAV; listed as Homo sapiens) [compound 120],"GC, OSCAR",A (>=50% of tumors above the cutoff),"C (>=5% of tumors above the cutoff, but <20%)","C (>=5% of tumors above the cutoff, but <20%)","B (>= 20% of tumors above the cutoff, but <50%)","B (>= 20% of tumors above the cutoff, but <50%)",A (>=50% of tumors above the cutoff),"C (>=5% of tumors above the cutoff, but <20%)","C (>=5% of tumors above the cutoff, but <20%)","B (>= 20% of tumors above the cutoff, but <50%)","B (>= 20% of tumors above the cutoff, but <50%)",A (>=50% of tumors above the cutoff),"B (>= 20% of tumors above the cutoff, but <50%)",A (>=50% of tumors above the cutoff),"B (>= 20% of tumors above the cutoff, but <50%)",+,+,+,+,+,"Presentation score OSCAR (HLA-A*02; HLA-A*02 peptides): ++++; Presentation score GC (HLA-A*02; HLA-A*02 peptides): ++++; Target coverage: over-expression category of source gene, GBM (source genes (mRNA) [1]; [4]): C (>=5% of tumors above the cutoff, but <20%); Target coverage: over-expression category of source gene, LGG (source genes (mRNA) [1]; [4]): B (>= 20% of tumors above the cutoff, but <50%); Target coverage: over-expression category of source gene, KIRP (source genes (mRNA) [1]; Papillary kidney carcinoma (N = 291), cutoff more than 2-fold above highest 75% percentile of normal tissue samples): C (>=5% of tumors above the cutoff, but <20%); Target coverage: over-expression category of source gene, PRAD (source genes (mRNA) [1]; [4]): C (>=5% of tumors above the cutoff, but <20%); Expression score AML (source genes (mRNA) [2]): +; Expression score SCLC (source genes (mRNA) [2]): +"
